Results are given in words; binding and its absence hold for the method and conditions named. In cells and extracts the contact can be indirect. A result given as binding can be weak or reduced; the word gives no strength.

The chains behind the UniProt entries cited, without tags or fusion partners. Where a name states a change or a piece, a line headed by the entry shows the natural chain unless it says otherwise.
UniProt O43474: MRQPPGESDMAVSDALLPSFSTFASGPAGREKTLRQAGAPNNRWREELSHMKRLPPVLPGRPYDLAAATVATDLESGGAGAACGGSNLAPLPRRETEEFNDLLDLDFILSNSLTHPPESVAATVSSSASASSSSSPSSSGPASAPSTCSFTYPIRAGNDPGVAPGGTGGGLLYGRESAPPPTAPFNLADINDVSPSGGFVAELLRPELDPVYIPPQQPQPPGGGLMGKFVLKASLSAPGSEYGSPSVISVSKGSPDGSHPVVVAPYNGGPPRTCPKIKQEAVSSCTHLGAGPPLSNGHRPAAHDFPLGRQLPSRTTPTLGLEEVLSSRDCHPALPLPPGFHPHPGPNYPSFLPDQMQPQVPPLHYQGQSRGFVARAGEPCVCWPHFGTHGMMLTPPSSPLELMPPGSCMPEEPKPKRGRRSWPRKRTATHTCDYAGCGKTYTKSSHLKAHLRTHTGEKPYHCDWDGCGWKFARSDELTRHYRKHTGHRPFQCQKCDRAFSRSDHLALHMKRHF
UniProt Q92841: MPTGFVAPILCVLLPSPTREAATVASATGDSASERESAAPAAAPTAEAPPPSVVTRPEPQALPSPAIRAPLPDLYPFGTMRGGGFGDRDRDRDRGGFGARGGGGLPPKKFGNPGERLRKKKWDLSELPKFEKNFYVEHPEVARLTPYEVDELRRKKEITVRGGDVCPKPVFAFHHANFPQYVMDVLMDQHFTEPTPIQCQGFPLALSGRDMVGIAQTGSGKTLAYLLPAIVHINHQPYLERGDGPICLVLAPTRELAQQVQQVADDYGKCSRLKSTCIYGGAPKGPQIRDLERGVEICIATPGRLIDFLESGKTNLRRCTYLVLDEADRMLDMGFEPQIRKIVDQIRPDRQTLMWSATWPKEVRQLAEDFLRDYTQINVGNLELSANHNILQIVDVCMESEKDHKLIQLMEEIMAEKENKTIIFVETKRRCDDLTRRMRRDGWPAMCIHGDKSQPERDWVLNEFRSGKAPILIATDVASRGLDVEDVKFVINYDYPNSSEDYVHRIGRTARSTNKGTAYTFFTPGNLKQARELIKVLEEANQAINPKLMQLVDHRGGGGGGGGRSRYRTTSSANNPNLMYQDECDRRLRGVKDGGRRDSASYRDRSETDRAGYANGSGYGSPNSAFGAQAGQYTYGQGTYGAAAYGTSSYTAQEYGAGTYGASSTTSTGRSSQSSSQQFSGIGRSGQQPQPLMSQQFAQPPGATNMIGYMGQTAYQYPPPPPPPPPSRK

The target of the assay is mutant Klf4 (three zinc-fingers mutant / zinc-finger domain deleted) (UniProt O43474). The assay can be described thus: co-IP; HEK293T and SMMC7721 cells transfected with Flag-DDX17 or HA-Klf4 plasmid for 48 h, lysed; Flag-M2/HA beads; washed four times with cell lysis buffer; Western blotting (mutant Klf4 in HEK293T only). A general note: A western blot detects proteins with antibodies after separation by electrophoresis.

As for “Flag-DDX17 (DEAD box RNA helicase 17) (from UniProt Q92841 1-729)”, the binding result is given as “binds weakly”.

Source of the values: paper PMC6814716.
